Results are given in words; binding and its absence hold for the method and conditions named. In cells and extracts the contact can be indirect. A yes stands for co-enrichment or nearness to the bait. Other partners may have been found. Where a sequence is shown, tags or fusion partners need not be part of it.
Target: T1, HA-BirA*-FKBP4 (human) (UniProt Q02790)
T1 sequence: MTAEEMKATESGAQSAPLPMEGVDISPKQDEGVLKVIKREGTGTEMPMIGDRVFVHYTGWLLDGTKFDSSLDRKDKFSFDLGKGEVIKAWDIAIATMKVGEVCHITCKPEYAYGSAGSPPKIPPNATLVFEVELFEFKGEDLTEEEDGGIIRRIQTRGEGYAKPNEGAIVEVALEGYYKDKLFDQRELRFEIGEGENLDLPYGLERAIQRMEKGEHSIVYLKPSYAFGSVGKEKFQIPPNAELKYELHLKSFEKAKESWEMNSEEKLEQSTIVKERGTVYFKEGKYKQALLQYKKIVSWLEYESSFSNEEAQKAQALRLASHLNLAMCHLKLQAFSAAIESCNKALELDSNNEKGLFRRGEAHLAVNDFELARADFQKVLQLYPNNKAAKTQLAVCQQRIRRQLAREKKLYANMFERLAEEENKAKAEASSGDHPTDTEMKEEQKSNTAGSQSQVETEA
Assay: proximity labelling; BioID: H1975 cells stably transfected with HA-BirA*-FKBP4 (control HA-BirA*), 50 μM biotin for 24 h, streptavidin agarose, mass spectrometry

Sequences of proteins named here, by UniProt entry; tags and fusion partners are left off.
UniProt P34931: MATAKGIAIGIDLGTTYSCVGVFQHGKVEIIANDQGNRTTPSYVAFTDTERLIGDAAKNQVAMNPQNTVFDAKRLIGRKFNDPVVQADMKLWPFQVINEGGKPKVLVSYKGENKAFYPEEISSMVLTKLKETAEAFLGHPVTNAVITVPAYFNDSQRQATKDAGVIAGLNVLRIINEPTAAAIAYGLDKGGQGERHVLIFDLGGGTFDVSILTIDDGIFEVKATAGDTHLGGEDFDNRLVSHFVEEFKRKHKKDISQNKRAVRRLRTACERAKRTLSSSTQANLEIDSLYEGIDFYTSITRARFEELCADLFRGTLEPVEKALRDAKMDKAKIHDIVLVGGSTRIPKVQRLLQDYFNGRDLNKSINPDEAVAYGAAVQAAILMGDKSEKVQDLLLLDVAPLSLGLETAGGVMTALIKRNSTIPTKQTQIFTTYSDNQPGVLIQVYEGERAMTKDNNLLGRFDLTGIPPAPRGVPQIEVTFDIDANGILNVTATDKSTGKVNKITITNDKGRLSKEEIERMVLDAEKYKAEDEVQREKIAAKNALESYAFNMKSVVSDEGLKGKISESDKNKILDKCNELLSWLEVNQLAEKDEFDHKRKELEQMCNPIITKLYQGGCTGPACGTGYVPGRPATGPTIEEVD

endogenous Hsp70 (HSPA1L) (from UniProt P34931 1-641)
binding: binds

From article PMC8192522
